The target in experiment [1] is full-length CAR with a TurboID tag inserted between Lys285 and Ser286 (UniProt P78310). As to the kind of experiment: proximity labelling; BioID with CAR-TurboID (CAR-BirA) in 16HBE CAR CRISPR cells; 500 µM biotin for 15 min; streptavidin beads; LC-MS/MS; enrichment against control samples.
The target is the same in experiment [2]. The experiment is described as above. The source holds these as a separate data set.

Protein sequences, listed by entry. Tags and fused reporters are not part of them. Residues count along the entry.
UniProt P78310, residues 20-365: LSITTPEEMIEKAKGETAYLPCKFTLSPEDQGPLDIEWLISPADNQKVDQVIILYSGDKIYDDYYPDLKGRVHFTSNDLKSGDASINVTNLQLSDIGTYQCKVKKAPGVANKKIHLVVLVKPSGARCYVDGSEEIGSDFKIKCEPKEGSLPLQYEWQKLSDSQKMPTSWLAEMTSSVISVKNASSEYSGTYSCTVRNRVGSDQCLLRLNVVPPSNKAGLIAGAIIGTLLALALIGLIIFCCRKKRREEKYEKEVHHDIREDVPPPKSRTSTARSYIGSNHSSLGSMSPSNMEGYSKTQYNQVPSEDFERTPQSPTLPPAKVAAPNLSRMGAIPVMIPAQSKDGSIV
UniProt P46937: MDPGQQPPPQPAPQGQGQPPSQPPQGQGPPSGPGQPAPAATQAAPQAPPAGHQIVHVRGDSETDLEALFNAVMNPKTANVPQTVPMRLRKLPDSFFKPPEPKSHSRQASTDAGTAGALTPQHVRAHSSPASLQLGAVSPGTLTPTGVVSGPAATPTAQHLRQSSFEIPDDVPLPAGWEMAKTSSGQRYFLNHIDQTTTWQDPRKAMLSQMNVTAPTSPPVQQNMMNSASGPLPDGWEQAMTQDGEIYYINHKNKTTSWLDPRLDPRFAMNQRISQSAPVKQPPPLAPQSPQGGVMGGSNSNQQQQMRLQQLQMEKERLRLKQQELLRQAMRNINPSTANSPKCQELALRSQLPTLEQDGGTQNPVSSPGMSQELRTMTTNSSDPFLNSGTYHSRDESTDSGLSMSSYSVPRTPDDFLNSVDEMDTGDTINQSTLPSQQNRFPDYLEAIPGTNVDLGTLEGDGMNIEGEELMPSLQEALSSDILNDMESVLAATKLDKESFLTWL
UniProt Q9Y5X1: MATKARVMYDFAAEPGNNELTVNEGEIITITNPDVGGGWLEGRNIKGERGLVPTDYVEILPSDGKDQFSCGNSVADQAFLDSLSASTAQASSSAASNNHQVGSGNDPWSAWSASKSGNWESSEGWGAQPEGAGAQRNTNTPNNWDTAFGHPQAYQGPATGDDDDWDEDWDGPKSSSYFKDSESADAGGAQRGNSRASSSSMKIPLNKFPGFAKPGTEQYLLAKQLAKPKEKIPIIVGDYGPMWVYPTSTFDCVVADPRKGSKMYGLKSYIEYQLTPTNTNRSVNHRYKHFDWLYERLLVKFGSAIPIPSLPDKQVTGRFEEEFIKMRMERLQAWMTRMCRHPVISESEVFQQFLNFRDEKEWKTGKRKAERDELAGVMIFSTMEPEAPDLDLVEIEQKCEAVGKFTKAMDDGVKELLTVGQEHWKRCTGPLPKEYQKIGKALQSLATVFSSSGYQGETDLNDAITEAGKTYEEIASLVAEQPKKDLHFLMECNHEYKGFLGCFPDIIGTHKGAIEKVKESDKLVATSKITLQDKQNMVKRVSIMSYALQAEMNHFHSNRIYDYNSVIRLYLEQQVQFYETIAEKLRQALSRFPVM
UniProt Q03135: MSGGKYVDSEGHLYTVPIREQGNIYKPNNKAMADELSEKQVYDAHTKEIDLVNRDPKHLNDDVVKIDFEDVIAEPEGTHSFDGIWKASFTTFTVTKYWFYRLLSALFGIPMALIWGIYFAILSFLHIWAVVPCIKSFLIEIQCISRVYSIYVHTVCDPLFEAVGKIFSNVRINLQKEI
UniProt Q15836: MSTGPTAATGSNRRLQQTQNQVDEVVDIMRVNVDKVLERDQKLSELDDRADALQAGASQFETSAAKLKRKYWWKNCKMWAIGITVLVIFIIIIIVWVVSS

Read-outs that look alike come from different tables or passages of the source. Results are given in words; binding and its absence hold for the method and conditions named. In cells and extracts the contact can be indirect. A yes stands for co-enrichment or nearness to the bait. Other partners may have been found.

Our source for the binding values is article PMC9613683.

Consider YAP1 (from UniProt P46937 1-504), for which the binding entry in experiment [1] is reported as “binds”.
As to “sorting nexin-9 (from UniProt Q9Y5X1 1-595)”, the binding entry in experiment [1] is listed as “binds”.
On the same count and under the same terms, as for caveolin-1 (from UniProt Q03135 1-178), the entry is “binds”.
In the case of VAMP-3 (from UniProt Q15836 1-100), the binding result in experiment [1] is reported as “binds”.

B1: Rab23 (protein, UniProt Q9ULC3 1-237)
chain: MLEEDMEVAIKMVVVGNGAVGKSSMIQRYCKGIFTKDYKKTIGVDFLERQIQVNDEDVRLMLWDTAGQEEFDAITKAYYRGAQACVLVFSTTDRESFEAVSSWREKVVAEVGDIPTVLVQNKIDLLDDSCIKNEEAEALAKRLKLRFYRTSVKEDLNVNEVFKYLAEKYLQKLKQQIAEDPELTHSSSNKIGVFNTSGGSHSGQNSGTLNGGDVINLRPNKQRTKKNRNPFSSCSIP
As for B1, the binding entry in experiment [2] was “binds”.
